# Results deposited as PubChem BioAssay AID652272 (Drosophila RNAi Screening Center, 2013)
# Test: 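Finding fly genes that regulate Hedgehog signal transduction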 (primary screen)
# Cell system: Drosophila clone 8 (Cl8) cells
# Reagents: long dsRNA against Drosophila genes
# Measurement: 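Plate reader light from a firefly reporter under a ptc promoter fragment that responds to Hedgehog, with Renilla light as transfection reference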
# Direction: firefly Hh reporter signal: higher = more ptc reporter light; Renilla reference signal: higher = more Renilla control light
# Rule for the call: 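Called a hit if the two-replicate mean z-score lies below -2 or above +3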
# Calls: active = hit: reporter lowered or raised; inactive = not a hit
# In all, the deposit lists about 21,000 reagents; shown is an unselected part of those that have a named target and a result. Of all reagents, 503 (2.4%) were called active. 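Raw plate light values, not normalised; calls rest on replicate z-scores that were not deposited; hits include reporter decreases as well as increases.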 The record does not give: the amount of reagent, the time to read-out.
target gene,dsRNA,"firefly Hh reporter signal, replicate 1","firefly Hh reporter signal, replicate 2","firefly Hh reporter signal, replicate 3","Renilla reference signal, replicate 1","Renilla reference signal, replicate 2",activity call
Ir94e (Ionotropic receptor 94e),DRSC15229,8.34e5,6.35e5,1.64e5,44497,5874,inactive
rig (rigor mortis),DRSC06053,81024,76006,,3733,3248,inactive
rig (rigor mortis),DRSC06400,88229,42067,,2869,3447,inactive
"Itpr (Inositol 1,4,5,-trisphosphate receptor)",DRSC12354,53801,1.02e5,,1860,2791,inactive
not (non-stop),DRSC11378,1.06e5,44848,,3952,1795,inactive
CG13407,DRSC14583,6.84e5,1.75e5,,31664,3843,inactive
ear (ENL/AF9-related),DRSC15675,1.06e5,92770,,4624,4277,inactive
Pgls (6-phosphogluconolactonase),DRSC19769,79816,1.55e5,,2230,5624,inactive
CG33203,DRSC14874,1.02e5,92972,,3062,2922,inactive
CG33203,DRSC14876,98188,1.48e5,,3403,5046,inactive
CG33203,DRSC14877,1.65e5,2.00e5,,5016,6376,inactive
CG31784,DRSC01574,1.17e5,2.69e5,,3296,12243,inactive
CG31789,DRSC01645,84114,2.72e5,,2501,10437,inactive
CG42854,DRSC19173,6.72e5,2.17e5,,37190,4258,inactive

2 entries already listed, ordered by “Renilla reference signal, replicate 1”, descending.
target gene,dsRNA,"firefly Hh reporter signal, replicate 1","firefly Hh reporter signal, replicate 2","firefly Hh reporter signal, replicate 3","Renilla reference signal, replicate 1","Renilla reference signal, replicate 2",activity call
CG33203,DRSC14874,1.02e5,92972,,3062,2922,inactive
Pgls (6-phosphogluconolactonase),DRSC19769,79816,1.55e5,,2230,5624,inactive

The results go on:
target gene,dsRNA,"firefly Hh reporter signal, replicate 1","firefly Hh reporter signal, replicate 2","firefly Hh reporter signal, replicate 3","Renilla reference signal, replicate 1","Renilla reference signal, replicate 2",activity call
CG14589,DRSC04866,88774,62688,,1665,4717,inactive
papi,DRSC00693,91926,60278,,3569,2391,inactive
CG10298,DRSC12522,62898,79392,,2457,2640,inactive
Tb (Tubby),DRSC15815,88309,94055,,2443,2805,inactive
CG5084,DRSC06913,93965,67011,,2640,4924,inactive
Lmx1a (LIM homeobox transcription factor 1 alpha),DRSC09726,47146,34112,41856,3840,2929,inactive
Lmx1a (LIM homeobox transcription factor 1 alpha),DRSC10275,45955,32516,15306,2733,1130,inactive
ND-30 (NADH dehydrogenase (ubiquinone) 30 kDa subunit),DRSC08243,1.30e5,75832,,3738,2308,active
CG8950,DRSC07300,1.09e5,91587,,5137,3440,inactive
CG15772,DRSC18078,82869,2.25e5,,3121,7984,inactive
LysB (Lysozyme B),DRSC08673,67203,55192,,2354,4069,inactive
Pabp2,DRSC07501,52682,30900,,1850,2992,inactive
Cyp301a1 (Cytochrome P450 301a1),DRSC07365,85129,58055,,2173,4240,inactive
CG10165,DRSC02017,82642,59741,,3984,2736,inactive
CG31819,DRSC01532,1.04e5,1.71e5,,2912,8481,inactive
Sik3 (Salt-inducible kinase 3),DRSC06505,1.26e5,63696,,3224,4560,inactive
Sik3 (Salt-inducible kinase 3),DRSC06771,88844,66214,,4059,2586,inactive
CR32511 (pseudo),DRSC20697,6.12e5,1.45e5,,6795,6795,inactive
agt (O-6-alkylguanine-DNA alkyltransferase),DRSC12611,75424,78098,,2376,2457,inactive
CG5326,DRSC13568,64707,1.89e5,,14394,4167,inactive
CG5326,DRSC15770,1.67e5,1.15e5,,6443,4978,inactive
CG5217,DRSC15740,4.09e5,69884,,23334,1496,inactive
obst-G (obstructor-G),DRSC11103,81628,37793,43270,3347,2978,inactive
CG31288,DRSC14667,5.96e5,1.58e5,,29610,4337,inactive
cactin,DRSC20576,49008,1.27e5,,1415,6029,inactive
